According to patent publication US11571446B2, “Gut microbiota and treatment of cancer” (Sanford Burnham Prebys Medical Discovery Institute, priority 2016, dated 2023):

Test system: gut microbiota
Test: Gut microbiota composition after mucin, inulin or anti-CTLA-4 treatment
Format: in vivo, mouse
[1] = mucin and inulin fed WT and Rnf5 mice

Substance: inulin
- Lactobacillus spp., Ruminococaceae and Lachnospiriaceae in gut microbiota (fed mice): suppressed large portions
- abundance of Bacteroides spp., P. goldsteinii, P. merdae, P. canis, P. koreensis, unclassified Pedobacter and O. sinus [1]: enrichment
- abundance of S. hydroxybenzoicus, Blautia spp. and J. ignava [1]: reduced abundance
